No constants are given. Whether binding was seen depends on the method and setting. Binding seen in cells or lysates may run through a third protein. Some binding calls cover weakened binding; strength is not graded here.

Amino acid sequences for entries named in this document (tags omitted).
UniProt Q86WV6: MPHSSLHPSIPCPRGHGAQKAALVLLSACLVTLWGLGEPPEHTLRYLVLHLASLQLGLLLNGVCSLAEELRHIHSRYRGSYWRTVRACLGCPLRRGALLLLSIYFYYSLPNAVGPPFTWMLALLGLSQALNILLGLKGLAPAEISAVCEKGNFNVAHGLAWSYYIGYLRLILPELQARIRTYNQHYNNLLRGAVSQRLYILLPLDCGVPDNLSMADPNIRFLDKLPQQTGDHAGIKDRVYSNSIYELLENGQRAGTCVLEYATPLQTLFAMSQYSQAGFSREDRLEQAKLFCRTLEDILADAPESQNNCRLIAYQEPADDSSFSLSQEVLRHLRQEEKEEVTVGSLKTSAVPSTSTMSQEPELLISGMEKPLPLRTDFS
UniProt Q99942: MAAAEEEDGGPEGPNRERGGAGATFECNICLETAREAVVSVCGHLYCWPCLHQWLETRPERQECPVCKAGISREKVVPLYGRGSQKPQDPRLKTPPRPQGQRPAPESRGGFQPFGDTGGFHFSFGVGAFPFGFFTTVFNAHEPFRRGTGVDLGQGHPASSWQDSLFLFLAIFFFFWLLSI

For two substances, binding results are on record in paper PMC9587004.

The target in one assay is GST-HA-STING (UniProt Q86WV6). Nature of the assay: pull-down; GST-HA-STING on GST beads mixed with Flag-RNF5, overnight at 4 °C; washes with 150 mM NaCl, 0.2% Triton X-100; WB; only the target purified.
Assay [1] deals with Flag-RNF5 (Ring-finger protein 5) (UniProt Q99942). In words: co-IP; HEK-293T cells co-transfected with Flag-RNF5 and Myc-STING plasmids; IP lysis buffer (20 mM Tris-HCl pH 7.4, 150 mM NaCl, 1 mM EDTA, 1% NP-40); Protein G-agarose beads and anti-label antibodies overnight at 4 °C; washes with 300 mM and 150 mM NaCl buffers; WB.

Take “Flag-RNF5 (for the GST pull-down) (from UniProt Q99942 1-180)”: the binding entry in the assay with GST-HA-STING is “binds”.
For “Myc-STING (stimulator of interferon genes) (from UniProt Q86WV6 1-379)”, in assay [1], the binding result is reported as “binds”.
